Measured values reported in paper doi:10.1101/2024.12.23.630205 (bioRxiv, 2024).
These are yes or no findings as the source states them, for the method shown. Binding seen in cells or lysates may run through a third protein. Some entries that bind do so weakly or less than the wild type. Where a sequence is shown, tags or fusion partners need not be part of it.

Target: T1, His-SIRT2 (hSIRT2 36-356 aa) (human) (UniProt Q8IXJ6)
T1 sequence: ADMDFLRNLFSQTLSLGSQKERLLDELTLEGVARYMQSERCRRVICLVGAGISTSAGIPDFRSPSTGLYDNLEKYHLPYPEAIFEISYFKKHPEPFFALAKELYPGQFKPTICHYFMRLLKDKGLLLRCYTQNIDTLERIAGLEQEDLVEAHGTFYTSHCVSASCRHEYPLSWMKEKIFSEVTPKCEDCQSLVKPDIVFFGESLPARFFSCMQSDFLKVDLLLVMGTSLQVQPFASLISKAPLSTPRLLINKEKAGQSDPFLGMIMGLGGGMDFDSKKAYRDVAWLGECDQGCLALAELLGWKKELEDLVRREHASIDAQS
Assay: pull-down

binding: binds
B1: GST-TULP3 (60-442 aa, construct-2) (domain or fragment, human, UniProt O75386 60-442, looked up)
chain: AKPRASDEQTPLVNCHTPHSNVILHGIDGPAAVLKPDEVHAPSVSSSVVEEDAENTVDTASKPGLQERLQKHDISESVNFDEETDGISQSACLERPNSASSQNSTDTGTSGSATAAQPADNLLGDIDDLEDFVYSPAPQGVTVRCRIIRDKRGMDRGLFPTYYMYLEKEENQKIFLLAARKRKKSKTANYLISIDPVDLSREGESYVGKLRSNLMGTKFTVYDRGICPMKGRGLVGAAHTRQELAAISYETNVLGFKGPRKMSVIIPGMTLNHKQIPYQPQNNHDSLLSRWQNRTMENLVELHNKAPVWNSDTQSYVLNFRGRVTQASVKNFQIVHKNDPDYIVMQFGRVADDVFTLDYNYPLCAVQAFGIGLSSFDSKLACE
